PubChem BioAssay AID1159599 – NIAID | 2016
This is an unselected part of 756 reagents tested. 130 of all reagents (17%) were called active. 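Calls are two-sided: actives include siRNAs that raised the Tnf reporter as well as ones that lowered it.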 Entries without a mark were called inactive. Reagents against one gene are numbered here. Not given: the amount of reagent.

- Screen: 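Which TLR pathway genes are needed for LPS-driven Tnf promoter activity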
- Cell system: mouse RAW264.7 G9 macrophage reporter clone cells
- Reagent: single siRNA against mouse genes
- Time to read-out: 48 to 72 h after siRNA transfection, LPS for the last 16 h
- Conditions: LPS (Salmonella minnesota R595), 16 h before fixation; dose not stated
- Read-out: 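Nuclear mCherry from a Tnf promoter reporter imaged after LPS, background removed, robust z-score from per-plate median and MAD, averaged over replicates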
- Direction: Tnf reporter z-score: higher = stronger Tnf promoter reporter signal after LPS
- Rule for the call: 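Called active if the mean z-score over replicates passes 1.5 in either direction, up or down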
- Meaning of the calls: active = strong change either way; inactive = little change

gene,reagent no.,"Tnf reporter z-score, replicate mean"
Map3k14 (mitogen-activated protein kinase kinase kinase 14),1,-0.0235
Map3k14 (mitogen-activated protein kinase kinase kinase 14),2,1.35
Map3k14 (mitogen-activated protein kinase kinase kinase 14),3,-1.29
Map3k14 (mitogen-activated protein kinase kinase kinase 14),4,0.195
Map3k14 (mitogen-activated protein kinase kinase kinase 14),5,-2.48 (active)
Map3k14 (mitogen-activated protein kinase kinase kinase 14),6,-0.847
Btk (Bruton agammaglobulinemia tyrosine kinase),1,-0.181
Btk (Bruton agammaglobulinemia tyrosine kinase),2,-1.44
Btk (Bruton agammaglobulinemia tyrosine kinase),3,-1.03
Btk (Bruton agammaglobulinemia tyrosine kinase),4,-0.15
Btk (Bruton agammaglobulinemia tyrosine kinase),5,-1.12
Btk (Bruton agammaglobulinemia tyrosine kinase),6,-0.0537
Tlr4 (toll-like receptor 4),1,-0.841
Tlr4 (toll-like receptor 4),2,-1.01
Tlr4 (toll-like receptor 4),3,-1.63 (active)
Tlr4 (toll-like receptor 4),4,-1.14
Tlr4 (toll-like receptor 4),5,-0.527
Tlr4 (toll-like receptor 4),6,-1.54 (active)
Ep300 (E1A binding protein p300),1,-1.68 (active)
Ep300 (E1A binding protein p300),2,-0.482
Ep300 (E1A binding protein p300),3,0.376
Ep300 (E1A binding protein p300),4,-0.318
Ep300 (E1A binding protein p300),5,-0.711
Ep300 (E1A binding protein p300),6,-0.233
Casp8 (caspase 8),1,-0.61
Casp8 (caspase 8),2,-1.21
Casp8 (caspase 8),3,0.131
Casp8 (caspase 8),4,0.37
Casp8 (caspase 8),5,0.776
Casp8 (caspase 8),6,0.918
Akt1 (Akt serine/threonine kinase 1),1,0.398
Akt1 (Akt serine/threonine kinase 1),2,-1.31
Akt1 (Akt serine/threonine kinase 1),3,0.616
Akt1 (Akt serine/threonine kinase 1),4,-0.148
Akt1 (Akt serine/threonine kinase 1),5,-0.948
Akt1 (Akt serine/threonine kinase 1),6,-1.4
Pik3r5 (phosphoinositide-3-kinase regulatory subunit 5),1,0.276
Pik3r5 (phosphoinositide-3-kinase regulatory subunit 5),2,-0.0672
Pik3r5 (phosphoinositide-3-kinase regulatory subunit 5),3,-1.83 (active)
Pik3r5 (phosphoinositide-3-kinase regulatory subunit 5),4,-0.962
Pik3r5 (phosphoinositide-3-kinase regulatory subunit 5),5,-1.52 (active)
Pik3r5 (phosphoinositide-3-kinase regulatory subunit 5),6,-0.511
Atf7 (activating transcription factor 7),1,-0.447
Atf7 (activating transcription factor 7),2,-1.56 (active)
Atf7 (activating transcription factor 7),3,-1.26
Atf7 (activating transcription factor 7),4,0.0553
Atf7 (activating transcription factor 7),5,-1.76 (active)
Atf7 (activating transcription factor 7),6,-1.06
Ripk1 (receptor (TNFRSF)-interacting serine-threonine kinase 1),1,-0.828
Ripk1 (receptor (TNFRSF)-interacting serine-threonine kinase 1),2,-0.321
Ripk1 (receptor (TNFRSF)-interacting serine-threonine kinase 1),3,1.11
Ripk1 (receptor (TNFRSF)-interacting serine-threonine kinase 1),4,3.76 (active)
Ripk1 (receptor (TNFRSF)-interacting serine-threonine kinase 1),5,-1
Ripk1 (receptor (TNFRSF)-interacting serine-threonine kinase 1),6,2.37 (active)
Irf3 (interferon regulatory factor 3),1,1.39
Irf3 (interferon regulatory factor 3),2,-0.331
Irf3 (interferon regulatory factor 3),3,-1.69 (active)
Irf3 (interferon regulatory factor 3),4,-1.71 (active)
Irf3 (interferon regulatory factor 3),5,-0.402
Irf3 (interferon regulatory factor 3),6,0.515
Tlr6 (toll-like receptor 6),1,0.504
Tlr6 (toll-like receptor 6),2,1.51 (active)
Tlr6 (toll-like receptor 6),3,-1.88 (active)
Tlr6 (toll-like receptor 6),4,0.113
Tlr6 (toll-like receptor 6),5,-0.474
Tlr6 (toll-like receptor 6),6,-0.453
"Ifnb1 (interferon beta 1, fibroblast)",1,1.55 (active)
"Ifnb1 (interferon beta 1, fibroblast)",2,-1.64 (active)
"Ifnb1 (interferon beta 1, fibroblast)",3,-1.07
"Ifnb1 (interferon beta 1, fibroblast)",4,1.72 (active)
"Ifnb1 (interferon beta 1, fibroblast)",5,-1.77 (active)
"Ifnb1 (interferon beta 1, fibroblast)",6,-0.777
Itgam (integrin alpha M),1,0.492
Itgam (integrin alpha M),2,-0.547
Itgam (integrin alpha M),3,0.446
Itgam (integrin alpha M),4,0.345
Itgam (integrin alpha M),5,-0.269
Itgam (integrin alpha M),6,-1.11
Egr2 (early growth response 2),1,-0.816
Egr2 (early growth response 2),2,-2.15 (active)
Egr2 (early growth response 2),3,-1.82 (active)
Egr2 (early growth response 2),4,-3.36 (active)
Egr2 (early growth response 2),5,-2.51 (active)
Egr2 (early growth response 2),6,-0.0976
Nfkbie,1,-0.879
Nfkbie,2,-1.06
Nfkbie,3,0.428
Nfkbie,4,-0.487
Nfkbie,5,-0.277
Nfkbie,6,0.361
Otud5 (OTU domain containing 5),1,0.0665
Otud5 (OTU domain containing 5),2,0.151
Otud5 (OTU domain containing 5),3,-0.564
Otud5 (OTU domain containing 5),4,-1.34
Otud5 (OTU domain containing 5),5,-1.34
Otud5 (OTU domain containing 5),6,-2.39 (active)
Map3k7 (mitogen-activated protein kinase kinase kinase 7),1,-0.322
Map3k7 (mitogen-activated protein kinase kinase kinase 7),2,0.799
Map3k7 (mitogen-activated protein kinase kinase kinase 7),3,-0.86
Map3k7 (mitogen-activated protein kinase kinase kinase 7),4,0.622
Map3k7 (mitogen-activated protein kinase kinase kinase 7),5,-0.653
Map3k7 (mitogen-activated protein kinase kinase kinase 7),6,-1.71 (active)
Ikbkb (inhibitor of kappaB kinase beta),1,-0.832
Ikbkb (inhibitor of kappaB kinase beta),2,-2.01 (active)
Ikbkb (inhibitor of kappaB kinase beta),3,-1.37
Ikbkb (inhibitor of kappaB kinase beta),4,-0.502
Ikbkb (inhibitor of kappaB kinase beta),5,-1.26
Ikbkb (inhibitor of kappaB kinase beta),6,-0.878
Chuk (conserved helix-loop-helix ubiquitous kinase),1,0.886
Chuk (conserved helix-loop-helix ubiquitous kinase),2,-1.2
Chuk (conserved helix-loop-helix ubiquitous kinase),3,1.34
Chuk (conserved helix-loop-helix ubiquitous kinase),4,-2.26 (active)
Chuk (conserved helix-loop-helix ubiquitous kinase),5,-1.23
Chuk (conserved helix-loop-helix ubiquitous kinase),6,-0.22

In a second layout: entries from further up.
{"gene":"Map3k14 (mitogen-activated protein kinase kinase kinase 14)","reagent no.":1,"Tnf reporter z-score, replicate mean":-0.0235}
{"gene":"Map3k14 (mitogen-activated protein kinase kinase kinase 14)","reagent no.":2,"Tnf reporter z-score, replicate mean":1.35}
{"gene":"Map3k14 (mitogen-activated protein kinase kinase kinase 14)","reagent no.":3,"Tnf reporter z-score, replicate mean":-1.29}
{"gene":"Map3k14 (mitogen-activated protein kinase kinase kinase 14)","reagent no.":4,"Tnf reporter z-score, replicate mean":0.195}
{"gene":"Map3k14 (mitogen-activated protein kinase kinase kinase 14)","reagent no.":5,"Tnf reporter z-score, replicate mean":"-2.48 (active)"}
{"gene":"Map3k14 (mitogen-activated protein kinase kinase kinase 14)","reagent no.":6,"Tnf reporter z-score, replicate mean":-0.847}
{"gene":"Btk (Bruton agammaglobulinemia tyrosine kinase)","reagent no.":1,"Tnf reporter z-score, replicate mean":-0.181}
{"gene":"Btk (Bruton agammaglobulinemia tyrosine kinase)","reagent no.":2,"Tnf reporter z-score, replicate mean":-1.44}
{"gene":"Btk (Bruton agammaglobulinemia tyrosine kinase)","reagent no.":3,"Tnf reporter z-score, replicate mean":-1.03}
